From publication PMC7819943, “Rice protein-binding microarrays: a tool to detect cis-acting elements near promoter regions in rice” come the findings set out here.

The list shows a part of the results.

This assay addresses T1, OsSMF1 (Oryza sativa, UniProt Q6ZLB0 1-436).
T1 sequence: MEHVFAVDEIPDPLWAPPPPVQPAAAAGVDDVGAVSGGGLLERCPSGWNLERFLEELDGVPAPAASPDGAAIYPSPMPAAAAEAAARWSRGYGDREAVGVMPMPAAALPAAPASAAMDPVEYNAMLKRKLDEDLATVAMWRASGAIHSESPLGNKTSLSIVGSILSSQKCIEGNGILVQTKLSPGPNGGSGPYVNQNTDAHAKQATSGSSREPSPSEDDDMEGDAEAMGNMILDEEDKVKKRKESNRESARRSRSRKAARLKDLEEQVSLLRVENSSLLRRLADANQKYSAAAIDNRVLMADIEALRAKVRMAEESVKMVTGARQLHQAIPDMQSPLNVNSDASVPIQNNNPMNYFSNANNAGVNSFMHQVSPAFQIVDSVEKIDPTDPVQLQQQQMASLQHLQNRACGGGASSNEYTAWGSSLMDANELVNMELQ
As to the kind of experiment: protein-binding microarray (RPBM); PBS, 2% BSA, 51.3 ng/ul salmon testes DNA, 50 uM zinc acetate, 200 nM TF, 25 C, 1 h; high values mean tight binding. The settings on record: protein: recombinant; tags: N-terminal polyhistidine and DsRed monomer fusion (pET32a); chain copies: 2; label: CyDye5-dUTP incorporated in the synthesized complementary strand; 3' TTTTT single-stranded linker to array surface; dsDNA, one strand shown. The gist of the method: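 Using Ni–NTA, transcription factors fused N-terminally to polyhistidine and DsRed were purified after expression in E. coli BL21-CodonPlus. These were incubated at 200 nM with a blocked, double-stranded custom Agilent array for 1 h at 25 °C in a buffer containing 50 µM zinc acetate, and the array was washed. The binding signal is per-feature fluorescence intensity (arbitrary units) on an Axon 4000B scanner.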
With “CTGCCATTCCAAGTAAAAGGTGGTGAATGGGAAATTGACACGGAGTCACCTAGTGCAG”, the binding signal is 3500 fluorescence intensity (a.u.).

“TTTGAGGTTTGACAAAATAAAACTCACATGGTGACATGGACGGAGTCACCTAGTGCAG”: the binding signal is 5340 fluorescence intensity (a.u.).

“GTTATTCATCAGGAATTCTGTGGCATGTTTGATTAGTTACCGGAGTCACCTAGTGCAG”: the binding signal was 3760 fluorescence intensity (a.u.).

Turning to “CTCATCCAAACGCCGCCACCCTCGTGGATGCAACGAGCACCGGAGTCACCTAGTGCAG”, the binding signal was 21900 fluorescence intensity (a.u.).

As for “CCTTACTCCTCGTCTGCAGCCGCCAACACGTACGATTACACGGAGTCACCTAGTGCAG”, the binding signal was 3940 fluorescence intensity (a.u.).

For “CACCAATGGGCCGTACATCCAGCTAGCTCATTGACGCATCCGGAGTCACCTAGTGCAG”, the binding signal is 3300 fluorescence intensity (a.u.).

Regarding “CACTTCACCTTTTATCATAATGAAGCTCTTCCTCCTCCTTCGGAGTCACCTAGTGCAG”, the binding signal was 3440 fluorescence intensity (a.u.).

In the case of “CCAAACCCATCCGCTGTTGAGCCCTCCACGTCAGCGCCTCCGGAGTCACCTAGTGCAG”, the binding signal is 25100 fluorescence intensity (a.u.).

For “TCAGCCTCAGTACCCACCACCTCCACGCTCGCGCCGTCGGCGGAGTCACCTAGTGCAG”, the binding signal was 3390 fluorescence intensity (a.u.).

For “TATACGAGAAGTAACCACCCCTCATGCAAGTGGTAATTTCCGGAGTCACCTAGTGCAG”, the binding signal was 12800 fluorescence intensity (a.u.).

Take “ATCCTACTGCAAATCAAAGGGCTGCCAATTTGCCAAATCACGGAGTCACCTAGTGCAG”: the binding signal is 31600 fluorescence intensity (a.u.).

As to “CAGCCGCCCGGCGCGCGCGTCACCGTCCGCAACCGCCACCCGGAGTCACCTAGTGCAG”, the binding signal is 5140 fluorescence intensity (a.u.).

For “GTCATCCTAGCAGCCAAAATGATGTGGCTACCCCAGACCCCGGAGTCACCTAGTGCAG”, the binding signal was 5150 fluorescence intensity (a.u.).

As to “AGCATTCAATGGTCATTCACTCGTCCTTGCTGACTTGCTGCGGAGTCACCTAGTGCAG”, the binding signal is 4040 fluorescence intensity (a.u.).

Consider “GGAGAATTCTCTGTTGCATCGTTGACAGACGTGTATTCCTCGGAGTCACCTAGTGCAG”, for which the binding signal is 5050 fluorescence intensity (a.u.).

With “GGCGGCGTTCGCGGCGGCGACGTGGGCGTACCTGACGGCGCGGAGTCACCTAGTGCAG”, the binding signal is 3590 fluorescence intensity (a.u.).

For the sequence “GAAGAAGATTGGGTTGCTAACACGTGGGTCTCACGCTGACCGGAGTCACCTAGTGCAG”, the binding signal is 6580 fluorescence intensity (a.u.).

On to “CCTCTTGTTTCCGCCATGCCGTGGGCTCAAACCGCCGGCGCGGAGTCACCTAGTGCAG”, for which the binding signal is 4140 fluorescence intensity (a.u.).

Regarding “CCCTCGGGGAGAGCCACGTGGGTTTGAGGGCGGCCTCCTCCGGAGTCACCTAGTGCAG”, the binding signal is 10700 fluorescence intensity (a.u.).

As to “AGAAAGAAAGCTCAGTTTCCAAGCGACAAAGCGATCAGTACGGAGTCACCTAGTGCAG”, the binding signal is 23700 fluorescence intensity (a.u.).

For the sequence “TAGGAGAAACACGTCAGCTACAGTGTTGAGCTGGATGAGTCGGAGTCACCTAGTGCAG”, the binding signal was 6830 fluorescence intensity (a.u.).

As for “GGTATGATTAATCACACACACAAACGAGAAGTCCAATTCGCGGAGTCACCTAGTGCAG”, the binding signal is 27400 fluorescence intensity (a.u.).

On to “GGGGAAGGGAGGGAGGAGTGTATAGAGTATAGGGGAGCGGCGGAGTCACCTAGTGCAG”, for which the binding signal is 3170 fluorescence intensity (a.u.).
